Results from PMC12229497, “The intracellular bacterium Orientia tsutsugamushi uses the autotransporter ScaC to activate BICD adaptors for dynein-based motility” (Nature Communications, 2025).

The chains behind the UniProt entries cited, without tags or fusion partners.
UniProt Q8TD16: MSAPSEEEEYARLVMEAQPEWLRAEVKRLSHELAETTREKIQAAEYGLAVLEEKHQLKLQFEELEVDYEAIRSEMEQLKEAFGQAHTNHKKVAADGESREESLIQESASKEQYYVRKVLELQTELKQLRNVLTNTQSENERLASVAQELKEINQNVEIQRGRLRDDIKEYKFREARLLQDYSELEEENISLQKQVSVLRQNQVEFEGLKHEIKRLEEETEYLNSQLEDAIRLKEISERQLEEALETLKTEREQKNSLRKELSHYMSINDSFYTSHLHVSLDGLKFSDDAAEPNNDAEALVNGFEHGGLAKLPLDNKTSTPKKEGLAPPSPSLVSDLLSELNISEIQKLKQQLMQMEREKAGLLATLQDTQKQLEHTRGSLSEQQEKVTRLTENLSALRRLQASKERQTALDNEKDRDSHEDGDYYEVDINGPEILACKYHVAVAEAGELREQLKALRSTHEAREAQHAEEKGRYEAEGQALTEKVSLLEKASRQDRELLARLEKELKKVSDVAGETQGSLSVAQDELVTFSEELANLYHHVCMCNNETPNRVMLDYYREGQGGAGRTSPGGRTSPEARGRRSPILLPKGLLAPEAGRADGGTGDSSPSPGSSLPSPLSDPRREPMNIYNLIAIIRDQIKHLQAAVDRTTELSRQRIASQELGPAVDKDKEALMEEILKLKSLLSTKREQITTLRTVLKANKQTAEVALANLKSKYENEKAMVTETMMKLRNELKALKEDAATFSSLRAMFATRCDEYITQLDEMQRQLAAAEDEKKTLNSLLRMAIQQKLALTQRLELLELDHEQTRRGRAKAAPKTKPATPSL

T1: GFP-ScaC (passenger domain of ScaC, residues 33–223, N-terminal eGFP) (Orientia tsutsugamushi) (UniProt I6Z768)
T1 sequence: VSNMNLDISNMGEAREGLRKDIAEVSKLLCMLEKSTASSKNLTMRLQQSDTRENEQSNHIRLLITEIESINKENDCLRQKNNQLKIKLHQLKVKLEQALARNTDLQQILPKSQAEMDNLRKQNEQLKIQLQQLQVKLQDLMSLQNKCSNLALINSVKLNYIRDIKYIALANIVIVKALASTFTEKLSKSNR

B1: BICD1 (human, endogenous) (protein, UniProt Q96G01 1-975)
chain: MAAEEVLQTVDHYKTEIERLTKELTETTHEKIQAAEYGLVVLEEKLTLKQQYDELEAEYDSLKQELEQLKEAFGQSFSIHRKVAEDGETREETLLQESASKEAYYLGKILEMQNELKQSRAVVTNVQAENERLTAVVQDLKENNEMVELQRIRMKDEIREYKFREARLLQDYTELEEENITLQKLVSTLKQNQVEYEGLKHEIKRFEEETVLLNSQLEDAIRLKEIAEHQLEEALETLKNEREQKNNLRKELSQYISLNDNHISISVDGLKFAEDGSEPNNDDKMNGHIHGPLVKLNGDYRTPTLRKGESLNPVSDLFSELNISEIQKLKQQLMQVEREKAILLANLQESQTQLEHTKGALTEQHERVHRLTEHVNAMRGLQSSKELKAELDGEKGRDSGEEAHDYEVDINGLEILECKYRVAVTEVIDLKAEIKALKEKYNKSVENYTDEKAKYESKIQMYDEQVTSLEKTTKESGEKMAHMEKELQKMTSIANENHSTLNTAQDELVTFSEELAQLYHHVCLCNNETPNRVMLDYYRQSRVTRSGSLKGPDDPRGLLSPRLARRGVSSPVETRTSSEPVAKESTEASKEPSPTKTPTISPVITAPPSSPVLDTSDIRKEPMNIYNLNAIIRDQIKHLQKAVDRSLQLSRQRAAARELAPMIDKDKEALMEEILKLKSLLSTKREQIATLRAVLKANKQTAEVALANLKNKYENEKAMVTETMTKLRNELKALKEDAATFSSLRAMFATRCDEYVTQLDEMQRQLAAAEDEKKTLNTLLRMAIQQKLALTQRLEDLEFDHEQSRRSKGKLGKSKIGSPKVSGEASVTVPTIDTYLLHSQGPQTPNIRVSSGTQRKRQFSPSLCDQSRPRTSGASYLQNLLRVPPDPTSTESFLLKGPPSMSEFIQGHRLSKEKRLTVAPPDCQQPAASVPPQCSQLAGRQDCPTVSPDTALPEEQPHSSSQCAPLHCLSKPPHP

Target: T1, GFP-ScaC (passenger domain of ScaC, residues 33–223, N-terminal eGFP) (Orientia tsutsugamushi)
Assay: affinity purification with mass spectrometry; GFP-trap magnetic beads on lysates of HeLa Flp-In cells expressing GFP-ScaC (GFP as control); 10 mM Tris pH 7.5, 150 mM NaCl, 0.5 mM EDTA; on-bead trypsin digest, LC-MS/MS; n = 3

Molecule | binding
BICD2 (human, endogenous) (from UniProt Q8TD16 1-824) | binds
B1 | binds

These are yes or no findings as the source states them, for the method shown. In cells and extracts the contact can be indirect. Here binding means that the protein was enriched with, or labelled near, the bait; the list need not be complete. Tags and fused reporters may be left off the sequences shown.
